This note sets out measurements from US20160075771A1.

Results are given in words; binding and its absence hold for the method and conditions named. Some results given as binding are weak or reduced against the parent protein; the word gives no strength.

For assay [1], the target named is surface HSP90 on MDAMB453 breast cancer cells (human) (UniProt P07900). In words: immunofluorescence on unfixed, living MDAMB453 cells (FIG. 5A, 5C).
The target is the same in assay [2]. As to the kind of experiment: immunofluorescence on MDAMB453 cells (FIG. 5A, 5C).
Assay [3] shares this target. In words: summary of the immunofluorescence experiments.
Assay [4] shares this target. In words: immunofluorescence on MDAMB453 cells (FIG. 5A).
For assay [5] the target is unchanged. As to the kind of experiment: immunofluorescence on unfixed MDAMB453 cells (FIG. 5A).

B1: recombinant 4C5 (antibody, V domains shown)
VL: ELVMTQSPSSMYASLGERVTITCKASQDINSYLSWFQQKPGKSPKTLIYRANRLVDGVPSRFSGSGSGQDYSLTINSLEYEDMGIYYCLQYDEFPRLTFGAGTRLELKR
With B1, the binding result in assay [1] and in assay [2] was “binds” in each case.

B2: human-mouse chimeric 4C5 antibody (antibody, V domains shown)
VL: B1 VL
With B2, the binding entry in assay [3], in assay [1] and in assay [2] was “binds” each time.

B3: monoclonal antibody (mAb) 4C5 (antibody, V domains shown)
VL: B1 VL
Take B3: the binding entry in assay [4] and in assay [5] was “binds” in each case.
